{"source": "patent US20150005207A1", "about": "“SYSTEMS AND METHODS FOR PRODUCING DIMETHYL SULFIDE FROM GASIFIED COKE” (SHELL OIL COMPANY, priority 2013, published 2015)", "assay": "Oil recovery from formation core by brine displacement followed by DMS displacement", "settings": "0.05 ml/min", "key": {"[1]": {"settings": "Core 1, after brine displacement, 32 hours"}, "[2]": {"settings": "Core 2, after brine displacement, 15 hours"}}, "data": [{"smiles": "CSC", "note": "[Dimethyl Sulfide, dimethyl sulfide]", "values": [{"measurement": "Oil produced DMS displacement", "setting": "[1]", "value": 3.5, "unit": "mL"}, {"measurement": "Oil produced DMS displacement (of % oil initially in core)", "setting": "[1]", "value": 32, "unit": "%"}, {"measurement": "Oil produced DMS displacement", "setting": "[2]", "value": 3.3, "unit": "mL"}, {"measurement": "Oil produced DMS displacement (of % oil initially in core)", "setting": "[2]", "value": 30, "unit": "%"}]}]}
